The other results are listed elsewhere or left out.
The targets below were run with C/C(=N\NC(=O)C1=CC(=CC=C1)S(=O)(=O)N2CCOCC2)/C3=C(C=CC(=C3)Cl)O (assay: log2 fold change, soluble protein after heating vs DMSO (PISA); higher = thermal stabilisation; K562 lysate, 10 uM; active = over 0.2 and 3.5 SD of the protein, either way, in both replicates (recomputed)).
Method in brief: (§1)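 To prepare the extract, K562 pellets were dounce-homogenised in PBS pH 7.4 with 1 mM MgCl2, giving crude material at 1 mg/mL protein. This was treated with 10 μM compound for 30 min, then heated in aliquots for 3 min over 48°C-58°C before pooling and addition of NP-40 to 0.5% at 4°C. Centrifugation at 21,000xg for 90 min left soluble protein in the supernatant, which TMTpro 16plex LC-MS/MS quantified with equalised channel sums. Results are log-two fold changes in thermal stability compared with solvent controls, from duplicates.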

By UniProt entry, the sequences of proteins in these tests, tags left out. Where a name states a change or a piece, a line headed by the entry shows the natural chain unless it says otherwise.
UniProt Q8TEB9: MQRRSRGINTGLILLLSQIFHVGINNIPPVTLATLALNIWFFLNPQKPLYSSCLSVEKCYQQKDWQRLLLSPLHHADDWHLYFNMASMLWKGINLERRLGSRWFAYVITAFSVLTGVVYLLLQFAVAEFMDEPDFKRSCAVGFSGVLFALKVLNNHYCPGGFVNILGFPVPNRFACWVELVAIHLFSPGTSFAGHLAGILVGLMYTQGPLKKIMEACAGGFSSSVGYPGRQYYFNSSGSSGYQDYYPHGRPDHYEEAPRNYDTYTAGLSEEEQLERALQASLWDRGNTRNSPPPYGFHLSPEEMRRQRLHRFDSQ
UniProt A6NEQ0: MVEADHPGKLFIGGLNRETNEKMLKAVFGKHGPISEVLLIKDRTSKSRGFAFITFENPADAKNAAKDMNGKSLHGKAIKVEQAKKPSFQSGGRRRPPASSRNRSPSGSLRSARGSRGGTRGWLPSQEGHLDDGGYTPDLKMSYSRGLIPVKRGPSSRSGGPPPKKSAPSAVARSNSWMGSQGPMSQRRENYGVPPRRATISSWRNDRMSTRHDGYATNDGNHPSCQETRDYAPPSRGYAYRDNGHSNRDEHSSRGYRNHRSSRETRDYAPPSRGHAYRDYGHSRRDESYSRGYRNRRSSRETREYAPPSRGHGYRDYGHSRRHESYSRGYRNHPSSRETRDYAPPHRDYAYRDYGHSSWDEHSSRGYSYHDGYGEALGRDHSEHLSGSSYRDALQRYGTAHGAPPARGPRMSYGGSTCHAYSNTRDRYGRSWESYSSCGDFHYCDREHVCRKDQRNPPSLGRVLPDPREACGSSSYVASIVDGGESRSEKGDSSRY
UniProt Q04206, whole entry, looked up: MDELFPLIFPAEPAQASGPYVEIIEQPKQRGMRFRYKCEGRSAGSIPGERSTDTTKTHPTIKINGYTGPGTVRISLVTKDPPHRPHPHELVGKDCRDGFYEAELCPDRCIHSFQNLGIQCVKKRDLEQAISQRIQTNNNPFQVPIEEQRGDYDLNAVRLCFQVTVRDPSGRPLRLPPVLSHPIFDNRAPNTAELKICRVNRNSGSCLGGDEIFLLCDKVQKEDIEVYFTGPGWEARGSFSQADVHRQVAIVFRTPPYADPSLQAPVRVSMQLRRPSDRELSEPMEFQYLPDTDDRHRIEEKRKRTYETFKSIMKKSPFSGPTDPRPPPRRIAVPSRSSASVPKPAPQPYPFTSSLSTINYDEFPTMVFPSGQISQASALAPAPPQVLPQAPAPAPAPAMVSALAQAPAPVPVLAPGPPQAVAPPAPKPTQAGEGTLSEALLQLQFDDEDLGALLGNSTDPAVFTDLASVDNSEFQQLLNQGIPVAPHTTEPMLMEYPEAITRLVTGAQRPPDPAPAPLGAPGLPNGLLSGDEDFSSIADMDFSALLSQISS
UniProt Q15291, whole entry, looked up: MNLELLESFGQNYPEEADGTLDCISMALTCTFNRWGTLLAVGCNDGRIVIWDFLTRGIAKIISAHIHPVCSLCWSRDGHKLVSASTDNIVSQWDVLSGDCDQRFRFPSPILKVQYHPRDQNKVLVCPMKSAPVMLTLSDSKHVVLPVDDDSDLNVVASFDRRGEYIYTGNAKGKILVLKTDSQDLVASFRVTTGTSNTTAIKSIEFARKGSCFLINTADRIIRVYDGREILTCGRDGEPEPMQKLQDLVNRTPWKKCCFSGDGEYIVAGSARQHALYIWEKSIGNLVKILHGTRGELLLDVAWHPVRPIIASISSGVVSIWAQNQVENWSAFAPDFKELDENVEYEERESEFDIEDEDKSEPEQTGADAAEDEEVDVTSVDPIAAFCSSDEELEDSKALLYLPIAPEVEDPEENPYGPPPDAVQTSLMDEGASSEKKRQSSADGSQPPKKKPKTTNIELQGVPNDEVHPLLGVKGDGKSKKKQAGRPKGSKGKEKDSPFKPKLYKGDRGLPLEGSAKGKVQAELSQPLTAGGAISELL
UniProt Q96H35: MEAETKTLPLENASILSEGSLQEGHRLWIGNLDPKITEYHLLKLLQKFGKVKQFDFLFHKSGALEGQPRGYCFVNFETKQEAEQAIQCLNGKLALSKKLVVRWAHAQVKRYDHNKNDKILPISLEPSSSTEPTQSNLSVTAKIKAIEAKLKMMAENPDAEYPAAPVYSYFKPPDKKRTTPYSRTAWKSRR
UniProt Q9HBD1: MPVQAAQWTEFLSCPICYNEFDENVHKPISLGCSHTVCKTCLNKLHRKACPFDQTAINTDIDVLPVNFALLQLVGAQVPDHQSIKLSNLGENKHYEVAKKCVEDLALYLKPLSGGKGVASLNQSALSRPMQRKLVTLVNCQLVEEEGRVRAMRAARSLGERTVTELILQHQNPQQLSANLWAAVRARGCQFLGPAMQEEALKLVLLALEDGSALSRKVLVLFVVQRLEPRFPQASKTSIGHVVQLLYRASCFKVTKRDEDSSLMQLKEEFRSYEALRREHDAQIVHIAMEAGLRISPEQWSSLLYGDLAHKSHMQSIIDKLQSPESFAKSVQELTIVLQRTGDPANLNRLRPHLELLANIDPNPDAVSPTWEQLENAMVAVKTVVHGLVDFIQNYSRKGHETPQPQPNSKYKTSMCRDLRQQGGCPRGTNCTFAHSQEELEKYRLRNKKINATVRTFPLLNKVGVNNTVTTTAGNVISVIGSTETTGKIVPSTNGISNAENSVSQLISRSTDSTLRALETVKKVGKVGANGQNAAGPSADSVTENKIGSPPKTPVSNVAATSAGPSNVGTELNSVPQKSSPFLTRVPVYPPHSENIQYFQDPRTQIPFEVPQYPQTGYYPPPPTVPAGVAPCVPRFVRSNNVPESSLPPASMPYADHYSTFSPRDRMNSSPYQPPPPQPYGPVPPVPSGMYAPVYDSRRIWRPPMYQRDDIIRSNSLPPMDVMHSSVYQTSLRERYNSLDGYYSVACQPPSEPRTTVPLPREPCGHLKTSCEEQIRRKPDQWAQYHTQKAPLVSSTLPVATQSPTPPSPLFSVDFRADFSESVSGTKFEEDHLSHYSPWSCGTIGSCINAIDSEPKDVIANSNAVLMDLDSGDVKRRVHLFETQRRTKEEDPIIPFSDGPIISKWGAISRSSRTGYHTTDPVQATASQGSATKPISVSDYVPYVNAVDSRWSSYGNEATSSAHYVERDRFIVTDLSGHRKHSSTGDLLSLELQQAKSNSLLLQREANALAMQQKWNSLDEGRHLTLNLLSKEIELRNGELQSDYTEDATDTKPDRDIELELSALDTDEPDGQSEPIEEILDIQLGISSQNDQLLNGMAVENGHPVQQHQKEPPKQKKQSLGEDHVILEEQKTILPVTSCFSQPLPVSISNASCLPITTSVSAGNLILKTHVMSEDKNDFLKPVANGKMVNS
UniProt Q96E39: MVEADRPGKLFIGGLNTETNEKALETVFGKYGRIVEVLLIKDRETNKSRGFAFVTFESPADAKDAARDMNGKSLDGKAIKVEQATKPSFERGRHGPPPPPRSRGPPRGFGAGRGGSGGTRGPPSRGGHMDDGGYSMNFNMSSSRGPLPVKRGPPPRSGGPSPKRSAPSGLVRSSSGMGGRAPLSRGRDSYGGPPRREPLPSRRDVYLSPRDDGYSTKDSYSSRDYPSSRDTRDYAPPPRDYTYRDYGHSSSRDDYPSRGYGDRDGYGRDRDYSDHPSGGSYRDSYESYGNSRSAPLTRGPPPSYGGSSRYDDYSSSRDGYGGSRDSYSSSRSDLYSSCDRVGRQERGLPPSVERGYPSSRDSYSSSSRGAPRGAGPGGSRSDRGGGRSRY
UniProt P48380: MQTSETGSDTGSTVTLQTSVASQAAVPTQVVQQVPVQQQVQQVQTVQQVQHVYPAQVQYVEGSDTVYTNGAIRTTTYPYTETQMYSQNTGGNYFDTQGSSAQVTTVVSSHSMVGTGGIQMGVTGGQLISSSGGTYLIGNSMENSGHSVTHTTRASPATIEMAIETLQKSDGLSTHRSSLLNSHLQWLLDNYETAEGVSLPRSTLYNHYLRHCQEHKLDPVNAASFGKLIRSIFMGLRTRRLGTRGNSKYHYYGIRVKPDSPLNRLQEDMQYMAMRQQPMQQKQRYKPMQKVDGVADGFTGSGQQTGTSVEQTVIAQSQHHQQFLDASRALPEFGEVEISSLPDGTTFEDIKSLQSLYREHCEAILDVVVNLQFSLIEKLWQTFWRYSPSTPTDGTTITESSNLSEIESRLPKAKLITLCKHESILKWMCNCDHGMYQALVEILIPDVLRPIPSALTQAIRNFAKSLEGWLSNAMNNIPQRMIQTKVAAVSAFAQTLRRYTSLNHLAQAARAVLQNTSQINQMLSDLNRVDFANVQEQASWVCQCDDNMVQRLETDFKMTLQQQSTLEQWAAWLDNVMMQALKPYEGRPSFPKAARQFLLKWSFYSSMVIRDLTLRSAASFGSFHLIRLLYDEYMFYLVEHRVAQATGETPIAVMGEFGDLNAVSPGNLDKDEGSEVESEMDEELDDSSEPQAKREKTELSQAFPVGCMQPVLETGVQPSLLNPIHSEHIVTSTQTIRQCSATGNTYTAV
UniProt Q02161: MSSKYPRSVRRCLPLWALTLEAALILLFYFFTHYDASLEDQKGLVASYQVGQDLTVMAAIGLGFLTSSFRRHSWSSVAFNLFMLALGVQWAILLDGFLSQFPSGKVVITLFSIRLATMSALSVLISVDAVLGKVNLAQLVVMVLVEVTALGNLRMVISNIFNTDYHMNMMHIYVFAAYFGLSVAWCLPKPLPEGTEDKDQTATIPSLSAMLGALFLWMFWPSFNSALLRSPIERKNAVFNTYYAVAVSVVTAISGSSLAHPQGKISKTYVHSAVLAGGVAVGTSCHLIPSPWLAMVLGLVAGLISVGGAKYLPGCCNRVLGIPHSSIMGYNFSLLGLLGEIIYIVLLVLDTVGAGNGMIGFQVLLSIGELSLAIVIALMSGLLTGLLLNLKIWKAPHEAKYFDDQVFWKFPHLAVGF
UniProt Q9HCM1: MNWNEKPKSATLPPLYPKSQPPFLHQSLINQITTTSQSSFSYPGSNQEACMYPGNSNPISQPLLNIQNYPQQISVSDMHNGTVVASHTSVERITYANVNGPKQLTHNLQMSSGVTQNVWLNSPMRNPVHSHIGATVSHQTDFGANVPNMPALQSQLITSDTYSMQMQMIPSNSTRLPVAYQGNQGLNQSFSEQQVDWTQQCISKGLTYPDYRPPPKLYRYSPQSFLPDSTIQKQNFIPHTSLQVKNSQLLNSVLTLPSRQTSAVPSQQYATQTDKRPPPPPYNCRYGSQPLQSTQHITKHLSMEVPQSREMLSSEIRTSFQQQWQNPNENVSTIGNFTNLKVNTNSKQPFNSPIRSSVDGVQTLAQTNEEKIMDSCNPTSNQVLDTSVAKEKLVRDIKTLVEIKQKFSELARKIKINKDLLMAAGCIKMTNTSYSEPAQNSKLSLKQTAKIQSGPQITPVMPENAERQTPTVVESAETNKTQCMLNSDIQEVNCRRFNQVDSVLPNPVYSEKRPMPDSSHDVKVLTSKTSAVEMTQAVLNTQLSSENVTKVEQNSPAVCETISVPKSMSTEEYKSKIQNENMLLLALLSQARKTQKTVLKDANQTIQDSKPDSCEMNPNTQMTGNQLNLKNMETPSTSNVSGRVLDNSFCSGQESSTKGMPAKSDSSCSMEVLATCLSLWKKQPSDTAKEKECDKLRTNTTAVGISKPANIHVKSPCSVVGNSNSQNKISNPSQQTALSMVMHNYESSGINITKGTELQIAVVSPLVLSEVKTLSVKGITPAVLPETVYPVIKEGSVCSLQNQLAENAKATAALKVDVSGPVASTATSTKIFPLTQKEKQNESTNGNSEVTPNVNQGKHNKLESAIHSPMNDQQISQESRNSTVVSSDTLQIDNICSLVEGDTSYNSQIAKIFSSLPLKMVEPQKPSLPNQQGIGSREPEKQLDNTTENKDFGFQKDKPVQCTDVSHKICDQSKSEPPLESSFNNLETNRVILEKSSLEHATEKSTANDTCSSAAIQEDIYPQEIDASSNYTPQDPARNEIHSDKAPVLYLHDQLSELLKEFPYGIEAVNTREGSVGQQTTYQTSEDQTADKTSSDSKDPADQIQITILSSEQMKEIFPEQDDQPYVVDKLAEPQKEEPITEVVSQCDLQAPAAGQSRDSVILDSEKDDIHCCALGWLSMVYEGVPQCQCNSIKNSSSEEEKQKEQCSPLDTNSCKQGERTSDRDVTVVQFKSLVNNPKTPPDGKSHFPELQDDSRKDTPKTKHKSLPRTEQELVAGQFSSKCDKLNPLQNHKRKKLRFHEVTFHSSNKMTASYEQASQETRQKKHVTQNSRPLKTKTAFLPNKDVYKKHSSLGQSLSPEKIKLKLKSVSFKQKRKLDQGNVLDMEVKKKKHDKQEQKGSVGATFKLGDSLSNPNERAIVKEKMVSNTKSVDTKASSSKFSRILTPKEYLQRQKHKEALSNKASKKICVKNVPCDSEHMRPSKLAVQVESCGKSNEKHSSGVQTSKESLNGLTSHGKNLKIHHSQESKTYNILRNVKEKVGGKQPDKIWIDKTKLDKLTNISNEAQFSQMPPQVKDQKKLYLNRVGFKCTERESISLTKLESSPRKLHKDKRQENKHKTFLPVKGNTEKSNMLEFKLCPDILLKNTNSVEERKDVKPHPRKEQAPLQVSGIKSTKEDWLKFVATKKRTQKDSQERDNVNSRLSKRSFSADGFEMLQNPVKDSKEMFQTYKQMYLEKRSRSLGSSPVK

log2 fold change, inactive:
RHBDD1 (UniProt Q8TEB9) -0.476
RBMY1E (UniProt A6NEQ0) -0.027
RELA (UniProt Q04206) -0.033
RBBP5 isoform 2 (UniProt Q15291) 0.081
RBM18 (UniProt Q96H35) -0.133
RC3H2 (UniProt Q9HBD1) -0.033
RBMXL1 (UniProt Q96E39) 0.078
RELCH (UniProt Q9P260) 0.173

These targets were tested with C1=CC(=CC=C1C2=NC3=C(N2)C=C(C=C3)C(=O)N)OC4=CC=C(C=C4)Cl in the same assay as above.
Method in brief: as §1

log2 fold change, inactive:
RELA (UniProt Q04206) 0
RELL1 (UniProt Q8IUW5) 0.011
RHBDD2 isoform 2 (UniProt Q6NTF9) -0.295

The targets below were run with C1=CC2=C(C=CC(=C2)/C=C\3/C(=O)NC(=NCC4=CC=CS4)S3)N=C1 in the same assay as above.
Method in brief: as §1

log2 fold change, inactive:
RHBDD1 (UniProt Q8TEB9) 0.19
RBMY1E (UniProt A6NEQ0) -0.154
RELA (UniProt Q04206) -0.02
RBBP5 isoform 2 (UniProt Q15291) 0.057
RBM18 (UniProt Q96H35) -0.222
RC3H2 (UniProt Q9HBD1) 0.126
RBMXL1 (UniProt Q96E39) -0.203
RELCH (UniProt Q9P260) 0.054

The targets below were run with C1=CC2=NC=CN=C2C=C1/C=C/3\C(=O)NC(=O)S3 in the same assay as above.
Method in brief: as §1

log2 fold change, inactive:
RHBDD1 (UniProt Q8TEB9) 0.337
RBMY1E (UniProt A6NEQ0) -0.01
RFX3 (UniProt P48380) -0.133
RELA (UniProt Q04206) -0.016
RFX2 (UniProt P48378) 0.208
RBBP5 isoform 2 (UniProt Q15291) -0.01
RBL2 (UniProt Q08999) -0.113
RBM41 (UniProt Q96IZ5) -0.018
RBP4 (UniProt P02753) -0.007
RBBP4 isoform 2 (UniProt Q09028) -0.084
RBM12B (UniProt Q8IXT5) 0.22
RASSF7 (UniProt Q02833) 0.124

Each target was assayed with C1=CC=C(C=C1)C2=NC(=C(N2)C3=CC=NC=C3)C4=CC(=C(C=C4)Cl)O in the same assay as above.
Method in brief: as §1

log2 fold change, inactive:
RELA (UniProt Q04206) -0.032
RHD (UniProt Q02161) -0.036
RBBP5 isoform 2 (UniProt Q15291) 0.166
RBM18 (UniProt Q96H35) -0.006
RBBP4 isoform 4 (UniProt Q09028) 0.292
RBL2 (UniProt Q08999) -0.01
RC3H2 (UniProt Q9HBD1) -0.101
RBKS (UniProt Q9H477) 0.194
RCOR2 (UniProt Q8IZ40) 0.014
RBM12B (UniProt Q8IXT5) -0.019
RHBDD2 isoform 2 (UniProt Q6NTF9) -0.016
RESF1 (UniProt Q9HCM1) -0.006

The targets below were run with C1=CC=C2C(=C1)C3=NNC4=CC=CC(=C43)C2=O in the same assay as above.
Method in brief: as §1

log2 fold change, inactive:
RHBDD1 (UniProt Q8TEB9) -0.056
RBMY1E (UniProt A6NEQ0) -0.061
RELA (UniProt Q04206) -0.001
RBBP5 isoform 2 (UniProt Q15291) 0.116
RBM18 (UniProt Q96H35) -0.049
RC3H2 (UniProt Q9HBD1) -0.052
RBMXL1 (UniProt Q96E39) -0.027
RELCH (UniProt Q9P260) -0.156

The targets below were run with C1CCN(C1)C(=O)NC2=CC=CC(=C2)NC3=NC=C(C(=N3)NCCC4=CN=CN4)Br in the same assay as above.
Method in brief: as §1

log2 fold change, inactive:
RHBDD1 (UniProt Q8TEB9) -0.093
RBMY1E (UniProt A6NEQ0) -0.04
RFX3 (UniProt P48380) -0.051
RELA (UniProt Q04206) -0.019
RBBP5 isoform 2 (UniProt Q15291) 0.206
RBM18 (UniProt Q96H35) -0.053
RBL2 (UniProt Q08999) -0.092
RC3H2 (UniProt Q9HBD1) -0.203
RBMXL1 (UniProt Q96E39) -0.048
RESF1 (UniProt Q9HCM1) -0.107

The targets below were run with C1CN(CCC1(CC2=CC=C(C=C2)Cl)N)C3=NC=NC4=C3C=CN4 in the same assay as above.
Method in brief: as §1

log2 fold change, inactive:
RHBDD1 (UniProt Q8TEB9) 0.159
RBMY1E (UniProt A6NEQ0) 0.024
RFX3 (UniProt P48380) 0.001
RELA (UniProt Q04206) -0.003
RBBP5 isoform 2 (UniProt Q15291) 0.121
RBM18 (UniProt Q96H35) 0.086
RBL2 (UniProt Q08999) 0.015
RC3H2 (UniProt Q9HBD1) -0.315
RBMXL1 (UniProt Q96E39) 0.076
RESF1 (UniProt Q9HCM1) 0.061

Reference: the supplement of paper PMC10849652
